How the values were obtained:
[1] = Stain removal: CIE-L*a*b* of the white of paper developed in model processing solution with optical brightener; conditions: Kodak Edge5
[2] = as above; conditions: Agfa Typ10
[3] = as above; conditions: Fuji SFAVIII
[4] = as above; conditions: Konica QA6; 1.0 g/L active substance in developer
[5] = 0.5 g/L active substance in developer
[6] = 1.5 g/L active substance in developer
[7] = 1.0 g/L active substance in developer

In the case of `O=C([O-])CC(Nc1nc(Nc2ccccc2)nc(Nc2ccc(/C=C/c3ccc(Nc4nc(Nc5ccccc5)nc(NC(CC(=O)[O-])C(=O)[O-])n4)cc3S(=O)(=O)[O-])c(S(=O)(=O)[O-])c2)n1)C(=O)[O-].[Na+].[Na+].[Na+].[Na+].[Na+].[Na+]` (centres unmarked) [Compound A], the “C (Chrominance)” value [1, 5] is reported as 0.71, the “H (Hue)” value [1, 5] is reported as 260 and the “L*” value [1, 5] is reported as 90.73. The “a*” value [1, 5] was −0.1, the “b*” value [1, 5] was −0.7 and the “C (Chrominance)” value [1, 6] was 1.12. For the same compound, the “H (Hue)” value [1, 6] was 259, the “L*” value [1, 6] was 90.65 and the “a*” value [1, 6] was −0.2. For the same compound, the “b*” value [1, 6] was −1.1, the “C (Chrominance)” value [2, 5] was 0.30 and the “H (Hue)” value [2, 5] was 341. For the same compound, the “L*” value [2, 5] was 90.06, the “a*” value [2, 5] was 0.3 and the “b*” value [2, 5] was −0.1. For the same compound, the “C (Chrominance)” value [2, 7] was 0.54, the “H (Hue)” value [2, 7] was 292 and the “L*” value [2, 7] was 90.21. The “a*” value [2, 7] was 0.2, the “b*” value [2, 7] was −0.5 and the “C (Chrominance)” value [2, 6] was 0.82. The “H (Hue)” value [2, 6] was 283, the “L*” value [2, 6] was 90.03 and the “a*” value [2, 6] was 0.2. The “b*” value [2, 6] was −0.8, the “C (Chrominance)” value [3, 5] was 0.98 and the “H (Hue)” value [3, 5] was 76. The “L*” value [3, 5] was 90.04, the “a*” value [3, 5] was 0.3 and the “b*” value [3, 5] was 1.0. For the same compound, the “C (Chrominance)” value [3, 7] was 0.60, the “H (Hue)” value [3, 7] was 90 and the “L*” value [3, 7] was 90.22. For the same compound, the “a*” value [3, 7] was 0.3, the “b*” value [3, 7] was 0.6 and the “C (Chrominance)” value [3, 6] was 0.39. For the same compound, the “H (Hue)” value [3, 6] was 50, the “L*” value [3, 6] was 90.24 and the “a*” value [3, 6] was 0.3. The “b*” value [3, 6] was 0.3.

With `O=CCC(Nc1nc(Nc2ccc(/C=C/c3ccc(Nc4nc(NC(CC(=O)[O-])C(=O)[O-])nc(NC(CC(=O)[O-])C(=O)[O-])n4)cc3S(=O)(=O)[O-])c(S(=O)(=O)[O-])c2)nc(NC(CC(=O)[O-])C(=O)[O-])n1)C(=O)[O-].[Na+].[Na+].[Na+].[Na+].[Na+].[Na+].[Na+].[Na+].[Na+].[Na+].[OH-]` (centres unmarked) [D] the “C (Chrominance)” value [2, 5] was 1.20, the “H (Hue)” value [2, 5] was 90 and the “L*” value [2, 5] was 90.11. The “a*” value [2, 5] was 0.1, the “b*” value [2, 5] was 1.2 and the “C (Chrominance)” value [2, 7] was 1.00. The “H (Hue)” value [2, 7] was 90, the “L*” value [2, 7] was 90.22 and the “a*” value [2, 7] was 0.1. The “b*” value [2, 7] was 1.0.

In the case of `O=C([O-])CC(Nc1nc(Nc2ccccc2)nc(Nc2ccc(/C=C/c3ccc(Nc4nc(Nc5ccccc5)nc(NC(CC(=O)[O-])C(=O)[O-])n4)cc3S(=O)(=O)[O-])c(S(=O)(=O)[O-])c2)n1)C(=O)[O-].[Na+].[Na+].[Na+].[Na+].[Na+].[Na+]` (centres unmarked) [B], the “C (Chrominance)” value [1, 5] is reported as 0.58, the “H (Hue)” value [1, 5] is reported as 240 and the “L*” value [1, 5] is reported as 90.72. The “a*” value [1, 5] was −0.3, the “b*” value [1, 5] was −0.5 and the “C (Chrominance)” value [1, 7] was 0.81. For the same compound, the “H (Hue)” value [1, 7] was 261, the “L*” value [1, 7] was 90.79 and the “a*” value [1, 7] was −0.1. For the same compound, the “b*” value [1, 7] was −0.8, the “C (Chrominance)” value [1, 6] was 1.10 and the “H (Hue)” value [1, 6] was 270. The “L*” value [1, 6] was 90.80, the “a*” value [1, 6] was −0.1 and the “b*” value [1, 6] was −1.1. The “C (Chrominance)” value [2, 5] was 0.30, the “H (Hue)” value [2, 5] was 90 and the “L*” value [2, 5] was 90.12. For the same compound, the “a*” value [2, 5] was 0.0, the “b*” value [2, 5] was 0.3 and the “C (Chrominance)” value [2, 7] was 0.78. For the same compound, the “H (Hue)” value [2, 7] was 296, the “L*” value [2, 7] was 90.13 and the “a*” value [2, 7] was 0.4. The “b*” value [2, 7] was −0.7, the “C (Chrominance)” value [2, 6] was 1.24 and the “H (Hue)” value [2, 6] was 285. The “L*” value [2, 6] was 90.16, the “a*” value [2, 6] was 0.3 and the “b*” value [2, 6] was −1.2. The “C (Chrominance)” value [3, 5] was 1.27, the “H (Hue)” value [3, 5] was 80 and the “L*” value [3, 5] was 90.11. For the same compound, the “a*” value [3, 5] was 0.2, the “b*” value [3, 5] was 1.3 and the “C (Chrominance)” value [3, 7] was 0.58. The “H (Hue)” value [3, 7] was 60, the “L*” value [3, 7] was 90.15 and the “a*” value [3, 7] was 0.3. For the same compound, the “b*” value [3, 7] was 0.5, the “C (Chrominance)” value [3, 6] was 0.30 and the “H (Hue)” value [3, 6] was 341. The “L*” value [3, 6] was 90.14, the “a*” value [3, 6] was 0.3 and the “b*” value [3, 6] was −0.1.

For `O=C([O-])CC(Nc1nc(Nc2ccc(/C=C/c3ccc(Nc4nc(Nc5cc(S(=O)(=O)[O-])ccc5S(=O)(=O)[O-])nc(NC(CC(=O)[O-])C(=O)[O-])n4)cc3S(=O)(=O)[O-])c(S(=O)(=O)[O-])c2)nc(Nc2cc(S(=O)(=O)[O-])ccc2S(=O)(=O)[O-])n1)C(=O)[O-].[Na+].[Na+].[Na+].[Na+].[Na+].[Na+].[Na+].[Na+].[Na+].[Na+]` (centres unmarked) [C], the “C (Chrominance)” value [1, 7] was 1.50, the “H (Hue)” value [1, 7] was 90 and the “L*” value [1, 7] was 89.81. For the same compound, the “a*” value [1, 7] was −0.1, the “b*” value [1, 7] was 1.5 and the “C (Chrominance)” value [2, 5] was 0.22. The “H (Hue)” value [2, 5] was 295, the “L*” value [2, 5] was 90.12 and the “a*” value [2, 5] was 0.1. For the same compound, the “b*” value [2, 5] was −0.2, the “C (Chrominance)” value [2, 7] was 1.15 and the “H (Hue)” value [2, 7] was 287. The “L*” value [2, 7] was 90.30, the “a*” value [2, 7] was 0.4 and the “b*” value [2, 7] was −1.1. For the same compound, the “C (Chrominance)” value [3, 5] was 0.76, the “H (Hue)” value [3, 5] was 67 and the “L*” value [3, 5] was 90.21. For the same compound, the “a*” value [3, 5] was 0.3, the “b*” value [3, 5] was 0.7 and the “C (Chrominance)” value [3, 7] was 0.39. For the same compound, the “H (Hue)” value [3, 7] was 310, the “L*” value [3, 7] was 90.28 and the “a*” value [3, 7] was 0.3. The “b*” value [3, 7] was −0.3.

With `O=C([O-])CN(CC(=O)[O-])c1nc(Nc2ccccc2)nc(Nc2ccc(/C=C/c3ccc(Nc4nc(Nc5ccccc5)nc(N(CC(=O)[O-])CC(=O)[O-])n4)cc3S(=O)(=O)[O-])c(S(=O)(=O)[O-])c2)n1.[Na+].[Na+].[Na+].[Na+].[Na+].[Na+]` [E] the “C (Chrominance)” value [1, 7] was 1.90, the “H (Hue)” value [1, 7] was 90 and the “L*” value [1, 7] was 90.03. The “a*” value [1, 7] was 0.0, the “b*” value [1, 7] was 1.9 and the “C (Chrominance)” value [2, 5] was 0.21. For the same compound, the “H (Hue)” value [2, 5] was 332, the “L*” value [2, 5] was 90.16 and the “a*” value [2, 5] was 0.2. For the same compound, the “b*” value [2, 5] was −0.1, the “C (Chrominance)” value [2, 7] was 0.54 and the “H (Hue)” value [2, 7] was 292. The “L*” value [2, 7] was 90.24, the “a*” value [2, 7] was 0.2 and the “b*” value [2, 7] was −0.5. For the same compound, the “C (Chrominance)” value [3, 5] was 1.33, the “H (Hue)” value [3, 5] was 78 and the “L*” value [3, 5] was 90.17. For the same compound, the “a*” value [3, 5] was 0.3, the “b*” value [3, 5] was 1.3 and the “C (Chrominance)” value [3, 7] was 0.87. For the same compound, the “H (Hue)” value [3, 7] was 67, the “L*” value [3, 7] was 90.28 and the “a*” value [3, 7] was 0.4. For the same compound, the “b*” value [3, 7] was 0.8.

In the case of `CN(CC(=O)[O-])c1nc(Nc2ccc(/C=C/c3ccc(Nc4nc(Nc5cc(S(=O)(=O)[O-])ccc5S(=O)(=O)[O-])nc(N(C)CC(=O)[O-])n4)cc3S(=O)(=O)[O-])c(S(=O)(=O)[O-])c2)nc(Nc2cc(S(=O)(=O)[O-])ccc2S(=O)(=O)[O-])n1.[Na+].[Na+].[Na+].[Na+].[Na+].[Na+].[Na+].[Na+]` [H], the “C (Chrominance)” value [1, 5] is reported as 1.70, the “H (Hue)” value [1, 5] is reported as 270 and the “L*” value [1, 5] is reported as 90.81. For the same compound, the “a*” value [1, 5] was −0.1, the “b*” value [1, 5] was −1.7 and the “C (Chrominance)” value [1, 7] was 1.92. For the same compound, the “H (Hue)” value [1, 7] was 262, the “L*” value [1, 7] was 90.79 and the “a*” value [1, 7] was −0.3. The “b*” value [1, 7] was −1.9, the “C (Chrominance)” value [3, 5] was 0.72 and the “H (Hue)” value [3, 5] was 284. The “L*” value [3, 5] was 90.28, the “a*” value [3, 5] was 0.3 and the “b*” value [3, 5] was −0.7. The “C (Chrominance)” value [3, 7] was 1.22, the “H (Hue)” value [3, 7] was 280 and the “L*” value [3, 7] was 90.31. The “a*” value [3, 7] was 0.2 and the “b*” value [3, 7] was −1.2.

For `O=C(O)CN(CC(=O)O)c1nc(Nc2ccc(/C=C/c3ccc(Nc4nc(Nc5cc(S(=O)(=O)O)ccc5S(=O)(=O)O)nc(N(CC(=O)O)CC(=O)O)n4)cc3S(=O)(=O)O)c(S(=O)(=O)O)c2)nc(Nc2cc(S(=O)(=O)O)ccc2S(=O)(=O)O)n1.[Na+].[Na+].[Na+].[Na+].[Na+].[Na+].[Na+].[Na+].[Na+].[Na+]` [G], the “C (Chrominance)” value [1, 5] was 0.72, the “H (Hue)” value [1, 5] was 256 and the “L*” value [1, 5] was 90.65. For the same compound, the “a*” value [1, 5] was −0.3, the “b*” value [1, 5] was −0.7 and the “C (Chrominance)” value [1, 7] was 1.02. For the same compound, the “H (Hue)” value [1, 7] was 259, the “L*” value [1, 7] was 90.78 and the “a*” value [1, 7] was −0.2. For the same compound, the “b*” value [1, 7] was −1.0, the “C (Chrominance)” value [2, 5] was 0.21 and the “H (Hue)” value [2, 5] was 332. For the same compound, the “L*” value [2, 5] was 90.24, the “a*” value [2, 5] was 0.2 and the “b*” value [2, 5] was −0.1. For the same compound, the “C (Chrominance)” value [2, 7] was 1.04, the “H (Hue)” value [2, 7] was 286 and the “L*” value [2, 7] was 90.29. The “a*” value [2, 7] was 0.3, the “b*” value [2, 7] was −1.0 and the “C (Chrominance)” value [3, 5] was 0.76. The “H (Hue)” value [3, 5] was 67, the “L*” value [3, 5] was 90.17 and the “a*” value [3, 5] was 0.4. The “b*” value [3, 5] was 0.7, the “C (Chrominance)” value [3, 7] was 0.45 and the “H (Hue)” value [3, 7] was 26. For the same compound, the “L*” value [3, 7] was 90.19, the “a*” value [3, 7] was 0.4 and the “b*” value [3, 7] was 0.2. For the same compound, the “C (Chrominance)” value [4] was 1.41, the “H (Hue)” value [4] was 83 and the “L*” value [4] was 90.85. For the same compound, the “a*” value [4] was 0.2 and the “b*” value [4] was 1.4.

Reference: patent US6890706B2, “Process for removing stain in a photographic material” (Ciba Specialty Chemicals Corporation, priority 1999, dated 2005)
